Laboratory results from patent US20230034474A1.
Numbering of substitutions follows the chain as printed. No constants are given. Whether binding was seen depends on the method and setting. Some binding calls cover weakened binding; strength is not graded here. One block for each binder: values may come before it.

Assays:
[1] = target: full-length sAPPalpha fragment (UniProt P05067); assay: ELISA, cross-reactivity to sAPPalpha
[2] = target: full-length sAPPalpha fragment (UniProt P05067); assay: indirect ELISA, sAPPalpha coated; +++ = high binding

binding [1]: binds
binding [2]: binds
B1: ACI-8037-103H5-Ab2 (antibody, mouse IgG2a, kappa, V domains shown)
VH: QVTLKESGPGILKPSQTLSLTCSFSGFSLSTSGMGVGWIRQPSGKGLEWLAHIWWDDDKYYNPSLKSRLTISKDSSRNQVFLKITSVDTADTATYYCVRRGTRLEDYFDFWGQGTTLTVSS
VL: DVLMTQTPLSLPVSLGDQASISCRSSRSIVHSNGNTYLEWYLQKPGQSPKLLIFKVSNRFSGVPDRFSGSGSGTDFTLKISRVEAEDQGVYYCFQGSHVPLTFGAGTKLELKR

binding [1]: binds
binding [2]: binds
B2: ACI-8037-109F4-Ab1 (antibody, mouse IgG2a, kappa, V domains shown)
VH: QVTLKESGPGILQPSQTLSLTCSFSGFSLSTSGMGVSWIRQPSGKGLEWLAHIYWDDDKRYNPSLKSRLTISKDTSRNQVFLKITSVDTADAGTYYCARRPIRTVVDAMDYWGQGTSVTVSL
VL: B1 VL with R27Q, S28T, K50N, F54Y, Q88L
